The values below come from publication PMC8705783, “The Effect of Conjugation with Octaarginine, a Cell-Penetrating Peptide on Antifungal Activity of Imidazoacridinone Derivative” (International Journal of Molecular Sciences, 2021).

In series [1] the test system is Candida albicans ATCC 10231.
Series [2] has as its system Saccharomyces cerevisiae ATCC 9763.
Series [3] has as its system Candida glabrata ATCC 90030.
Series [4] deals with Candida parapsilosis ATCC 22019.

For `N=C(N)NCCC[C@H](NC(=O)[C@H](CCCNC(=N)N)NC(=O)[C@H](CCCNC(=N)N)NC(=O)[C@H](CCCNC(=N)N)NC(=O)[C@H](CCCNC(=N)N)NC(=O)[C@H](CCCNC(=N)N)NC(=O)[C@H](CCCNC(=N)N)NC(=O)[C@@H](N)CCCNC(=N)N)C(=O)NCCNc1ccc2ncn3c4ccc(O)cc4c(=O)c1c23` [Compound 1-R8], the “IC50 HEK293/MIC90 (mycostatic selectivity index)” value with Candida krusei ATCC 6258 (HEK293 vs Candida krusei ATCC 6258) came to 4.44; in series [1] (HEK293 vs Candida albicans ATCC 10231, MIC converted to micromolar), 2.22; in series [2] (HEK293 vs Saccharomyces cerevisiae ATCC 9763), 2.22; in series [3] (HEK293 vs Candida glabrata ATCC 90030) it was 0.56; in series [4] (HEK293 vs Candida parapsilosis ATCC 22019) it was 8.88. In addition, the “IC50 HEPG2/MIC90 (mycostatic selectivity index)” value with Candida krusei ATCC 6258 (HEPG2 vs Candida krusei ATCC 6258) is 3.17; in series [1] (HEPG2 vs Candida albicans ATCC 10231), 1.58; in series [2] (HEPG2 vs Saccharomyces cerevisiae ATCC 9763) it was 1.58; in series [3] (HEPG2 vs Candida glabrata ATCC 90030), 0.40; in series [4] (HEPG2 vs Candida parapsilosis ATCC 22019) it was 6.33.
